Results taken from patent publication US20230089620A1.
No constants are given. Whether binding was seen depends on the method and setting. Some binding calls cover weakened binding; strength is not graded here.

Amino acid sequences for entries named in this document (tags omitted). Residues count along the entry.
UniProt P60568, residues 21-153: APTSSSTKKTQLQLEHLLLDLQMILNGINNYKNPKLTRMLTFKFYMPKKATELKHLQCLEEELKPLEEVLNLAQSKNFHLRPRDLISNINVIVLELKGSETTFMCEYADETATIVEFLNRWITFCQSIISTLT

B1: C2-53 full-length fully human anti-IL-2 antibody (antibody, human IgG1, kappa, L234A L235A, V domains shown)
VH: EVQLVESGGGLVQPGRSLILSCAASGFTFDDYAMHWVRQAPGKGLEWVSGISWNSGSIGYADSVKGRFTISRDNAKNSLYLQMNSLRAEDTALYYCAKDQLRWGTYYYYGMDVWGQGTTVTVSS
VL: DIQMTQSPSTLSASVGDRVTITCRASQSVSIWVAWYQQKPGKAPKLLIYKASSLERGVPTRFSGSGSGTEFTLTISSLQPEDFATYHCQQYDTGATFGQGTKVEMKR
B2: D3-68 full-length fully human anti-IL-2 antibody (antibody, human IgG1, kappa, L234A L235A, V domains shown)
VH: QVQLVQSGPEVKKPGASVKVSCKASGYTFTSYGISWVRRAPGQGLEWMGWISAYNGNTNYAQKLQGRVTMTTDTSTSTAYMELRSLRSDDTAVYYCARDLQSPTYYYGSGVIDYWGQGTLVTVSS
VL: DIQLTQSPSTLSASVGDRVTISCRASRAVSPWLAWYQHRPGQAPKLLIYAASSLQSGVPSRFSGSGSGTDFTLTISSLQPEDFATYYCQQYRSYPFTFGPGTTVDIRR
B3: D2-60 full-length fully human anti-IL-2 antibody (antibody, human IgG1, kappa, L234A L235A, V domains shown)
VH: QVQLVQSGAEVKKPGASVKVSCKASGYTFTSYGISWVRQAPGQGLEWMGWISAYNGNTNYAQKLQGRVTMTTDTSTSTAYMELRSLRSDDTAVYYCAREYSSWYSGGMDVWGQGTTVTVSS
VL: DIQMTQSPSSLSASVGDRVTITCRASQGISNYLAWYQQKPGKVPKLLIYAASTLQSGVPSRFSGSGSGTDFTLTISSLQPEDVATYYCQKYDSAPFTFGQGTRLEIKR

Molecular target: IL-2 (C013, Novoprotein) (UniProt P60568)
Assay: SPR (Biacore T200), antibody captured on Protein A chip, IL-2 analyte

binding	Binder
binds	B1
binds	B2
binds	B3
